These results are taken from publication PMC5868994.

The chains behind the UniProt entries cited, without tags or fusion partners.
UniProt Q8W234: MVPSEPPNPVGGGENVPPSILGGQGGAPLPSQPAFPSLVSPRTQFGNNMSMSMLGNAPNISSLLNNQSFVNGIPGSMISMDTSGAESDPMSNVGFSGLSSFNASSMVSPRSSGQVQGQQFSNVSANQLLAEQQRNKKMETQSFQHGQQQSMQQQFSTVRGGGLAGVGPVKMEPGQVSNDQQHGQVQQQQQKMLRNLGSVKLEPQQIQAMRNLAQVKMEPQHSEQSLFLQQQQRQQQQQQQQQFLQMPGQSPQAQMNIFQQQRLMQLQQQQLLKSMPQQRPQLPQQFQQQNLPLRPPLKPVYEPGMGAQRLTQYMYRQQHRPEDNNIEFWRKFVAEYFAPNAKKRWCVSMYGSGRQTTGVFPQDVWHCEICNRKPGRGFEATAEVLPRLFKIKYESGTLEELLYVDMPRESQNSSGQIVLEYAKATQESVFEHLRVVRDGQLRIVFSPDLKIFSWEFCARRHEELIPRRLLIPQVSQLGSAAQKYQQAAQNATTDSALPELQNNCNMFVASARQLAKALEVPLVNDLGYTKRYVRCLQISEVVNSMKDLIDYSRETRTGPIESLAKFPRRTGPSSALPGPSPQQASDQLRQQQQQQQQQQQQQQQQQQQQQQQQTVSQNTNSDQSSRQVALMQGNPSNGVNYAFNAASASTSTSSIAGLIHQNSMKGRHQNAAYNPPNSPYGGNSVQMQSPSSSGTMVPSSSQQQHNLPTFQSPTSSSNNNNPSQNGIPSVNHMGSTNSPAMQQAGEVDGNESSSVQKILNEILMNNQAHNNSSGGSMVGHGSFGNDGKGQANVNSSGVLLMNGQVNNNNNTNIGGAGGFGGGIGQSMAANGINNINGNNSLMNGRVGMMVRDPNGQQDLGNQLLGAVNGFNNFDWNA

Where two headings read alike, the source gives them in different places. These are yes or no findings as the source states them, for the method shown. For part of these data: In cells and extracts the contact can be indirect. Some entries that bind do so weakly or less than the wild type. Sequences can lack the tags named with a protein.

Assay [1] has as its target T1, B…US (BP/KNOTTED-LIKE ARABIDOPSIS THALIANA1), Arabidopsis, yeast two-hybrid fusion (Arabidopsis thaliana) (UniProt P46639).
T1 sequence: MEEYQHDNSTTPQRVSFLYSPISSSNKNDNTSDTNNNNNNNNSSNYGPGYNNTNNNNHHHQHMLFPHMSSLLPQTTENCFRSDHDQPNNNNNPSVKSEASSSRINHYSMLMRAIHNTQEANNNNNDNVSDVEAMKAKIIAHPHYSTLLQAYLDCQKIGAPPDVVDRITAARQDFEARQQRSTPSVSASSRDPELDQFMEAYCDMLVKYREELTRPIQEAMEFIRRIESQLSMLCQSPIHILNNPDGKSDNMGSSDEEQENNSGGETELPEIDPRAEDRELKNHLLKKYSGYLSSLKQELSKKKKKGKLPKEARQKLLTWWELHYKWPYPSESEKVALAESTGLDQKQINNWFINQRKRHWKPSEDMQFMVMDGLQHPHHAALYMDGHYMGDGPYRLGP
Kind of assay: two-hybrid; GAL4 system (pGADT7, pGBKT7), yeast strain AH109, co-transformation, 28°C; selective medium -W-L-H-A, with different concentrations of 3-aminotriazole.

The target in assay [2] is T2, …, Arabidopsis, yeast two-hybrid fusion (Arabidopsis thaliana) (UniProt O81313).
T2 sequence: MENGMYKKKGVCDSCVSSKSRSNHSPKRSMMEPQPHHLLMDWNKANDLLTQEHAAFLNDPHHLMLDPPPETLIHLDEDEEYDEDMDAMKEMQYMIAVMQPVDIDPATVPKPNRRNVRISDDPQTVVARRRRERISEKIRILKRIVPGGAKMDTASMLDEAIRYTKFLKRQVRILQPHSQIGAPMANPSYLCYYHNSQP
Described as above.

Assay [3] has as its target T3, B…US (BP/KNOTTED-LIKE ARABIDOPSIS THALIANA1), Arabidopsis, BiFC fusion (Arabidopsis thaliana) (UniProt P46639).
T3 sequence: T1 sequence
Put plainly: split reporter; BiFC with YFP halves (pYFPN43, pYFPC43) in tobacco leaf epidermis cells, with p19 silencing suppressor; images 72 h after infiltration.

For assay [4], the target named is T4, …, Arabidopsis, BiFC fusion (Arabidopsis thaliana) (UniProt O81313).
T4 sequence: T2 sequence
Described as above.

The target in assay [5] is T3, B…US (BP/KNOTTED-LIKE ARABIDOPSIS THALIANA1), Arabidopsis, BiFC fusion (Arabidopsis thaliana). Described as above. This is another data set of the same source.
Assay [6] has as its target T1, B…US (BP/KNOTTED-LIKE ARABIDOPSIS THALIANA1), Arabidopsis, yeast two-hybrid fusion (Arabidopsis thaliana). Put plainly: two-hybrid; GAL4 system (pGADT7, pGBKT7), yeast strain AH109, co-transformation, 28°C; selective medium -W-L-H-A, with different concentrations of 3-aminotriazole. The source holds these as a separate data set.

In the case of “SEUSS, Arabidopsis, yeast two-hybrid fusion (from UniProt Q8W234 1-877)”, the binding entry in assay [1] and in assay [2] was “binds” throughout.
“SEUSS, Arabidopsis, BiFC fusion (from UniProt Q8W234 1-877)”: the binding entry in assay [3] and in assay [4] was “binds” each time.

B1: …, Arabidopsis, BiFC fusion (protein, UniProt O81313 1-198)
chain: T2 sequence
For B1, the binding entry in assay [5] is on record as “binds”.

B2: …, Arabidopsis, yeast two-hybrid fusion (protein, UniProt O81313 1-198)
chain: T2 sequence
Take B2: the binding entry in assay [6] is “binds”.
